Test: Fmoc solid-phase peptide synthesis; sieber amide resin; HBTU/HOBt
Conditions: whole synthesis, HPLC

GDEVDGSGK(Mtt)
purity (crude or final not stated): more than 90%

— patent US8133482B2 (The Trustees of the University of Pennsylvania, priority 2003, dated 2012)
